Some of the results follow.
These molecules were tested on T1, CTL2-GFP (C. trachomatis L2/434/Bu, GFP-expressing). Conditions: bulk GFP, single well; 28.5 h, 10 µM; inhibitor.
T1 construct: L2/434/Bu, GFP-expressing
Set-up: species or system HeLa; Intracellular C. trachomatis growth in HeLa cells, bulk GFP fluorescence relative to DMSO

| Compound | % of control remaining [%] |
| --- | --- |
| C[S+]([O-])CCNC(=O)c1cnn(-c2ccc(F)cc2)c1 (centres unmarked) [CBK283245] | 117.931 |
| CCn1c(=O)n(CC(=O)N2CCc3ccccc32)c2cccnc21 [CBK283826] | 140.985 |
| O=C(O)C1CSC(c2cc3ccccc3o2)N1 (centres unmarked) [CBK019502] | 100.403 |
| Nc1ncc(-c2cccc3ccccc23)nc1Nc1ccc2[nH]ccc2c1 [CBK063659] | 186.934 |
| C#CCNS(=O)(=O)c1ccc(C(=O)Nc2ccnn2Cc2ccccc2)cc1 [CBK297727] | 122.062 |
| O=C(O)C1CCN(C(=O)c2ccc3nsnc3c2)CC1 [CBK057344] | 118.776 |
| Cc1cc(S(=O)(=O)N(CCC#N)c2ccccc2)c(C)cc1Cl [CBK043618] | 144.51 |
| COCCc1noc(CC2CCN(c3ncc(Cl)cn3)CC2)n1 [CBK304172] | 150.833 |
| COc1ccc(NC(=O)C2CN(S(=O)(=O)c3ccccc3)CCN2S(=O)(=O)c2ccccc2)cc1 (centres unmarked) [CBK262500] | 77.4743 |
| NC(=O)c1c(NC(=O)COc2ccccc2[N+](=O)[O-])sc2c1CCC2 [CBK262819] | 101.564 |
| COc1ccc(-c2cc(C(=O)Nc3nc4c(OC)cccc4s3)cnc2-c2ccccc2)cn1 [CBK036681] | 87.5767 |
| COc1ccc(CCCC(=O)N2CCN(c3ccccc3OC)CC2)cc1OC [CBK091495] | 100 |
| O=C(CSc1nc2ccccc2o1)N1c2ccccc2Sc2ccccc21 [CBK221524] | 79.6863 |
| O=C(C1C2CCCCC21)N1CCC(Oc2ccc(F)cc2)CC1 (centres unmarked) [CBK282065] | 118.001 |
| Cc1ccccc1NC(=O)CC1c2ccccc2CC(C)(C)N1C (centres unmarked) [CBK262567] | 105.504 |
| CCCn1nc(C)c(CN(C)Cc2n[nH]c3c2CCCC3)c1C [CBK282600] | 145.098 |
| COc1ccc(N2CCN(Cc3cc([N+](=O)[O-])ccc3Cl)CC2)cc1 [CBK261571] | 100 |
| CC(=O)Nc1cccc(Oc2nccnc2/C=C/c2ccccc2)c1 [CBK106881] | 100 |
| O=C(O)CCCCCN1C(=O)C2CC=CCC2C1=O (centres unmarked) [CBK286534] | 124.451 |
| CCOC(=O)c1csc(C2CCCN2C(=O)CCc2ccccc2O)n1 (centres unmarked) [CBK305448] | 97.3822 |
| Cc1ccc(-c2nnc3ccc(SCC(=O)NC4CCCC4)nn23)cc1 [CBK287523] | 146.005 |
| Cc1c(OCCC2CCCCN2C)ccc2c(=O)cc(N3CCOCC3)oc12 (centres unmarked) [CBK016644] | 148.394 |
| CCC(=O)Nc1ccccc1C(=O)C(=O)O [CBK219398] | 86.0208 |
| CC(C)S(=O)(=O)n1ccn(-c2ccc3c(c2)OCO3)c1=O [CBK106630] | 100 |
| O=C(C1=C(O)C(=O)N(CCCN2CCOCC2)C1c1cccnc1)c1cccs1 (centres unmarked) [CBK264555] | 127.386 |
| CN(C(=O)c1ccc(-n2nncc2-c2ccccc2)cc1)c1ccccc1 [CBK288107] | 134.744 |
| O=C(Nc1nc(-c2ccccc2)cs1)c1ccc(Br)cc1 [CBK068003] | 131.435 |

| Compound | % of control remaining [%] |
| --- | --- |
| COc1ccc(CCC(=O)N2CCCC2c2cc(Nc3nccs3)cc(C)n2)cc1 (centres unmarked) [CBK285939] | 101.851 |
| Cc1ncc2c(n1)[C@@H]1CN(C(=O)Cc3cccs3)C[C@@H]1CC2 [CBK284491] | 112.132 |
| CCS(=O)(=O)Nc1cc(Cl)ccc1C [CBK111350] | 178.634 |
| Cc1ccc(CN(CCN(C)C)Cc2c(C)nc3sccn23)o1 [CBK283229] | 91.3642 |
| CN1C(=O)CN(C2CCCCC2)C1=O [CBK116320] | 125.506 |
| O=C(O)C1CCCN1C(=O)NCc1c(Cl)cccc1Cl (centres unmarked) [CBK161383] | 135.587 |
| CC1CCC(C(N)=O)CN1c1cc(=O)n2ccccc2n1 (centres unmarked) [CBK304835] | 98.9125 |
| COc1ccc(-n2c(Cc3ccccc3)nnc2SCC(=O)c2ccccc2)cc1 [CBK265989] | 117.952 |
| O=C(CSCc1ccccc1Br)Nc1ccccc1-c1ccccc1 [CBK265959] | 121.481 |
| CCCC/C=C/c1cncc(N[C@@H](C)c2ccccc2)n1 [CBK065472] | 105.915 |
| COc1ccc(C(=O)N2CCN(c3nc4c(s3)c(C)nn4C)CC2)cc1 [CBK307457] | 91.3637 |
| CCN(CC)C(=O)[C@@H](C)C1CC[C@@]2(C)CC[C@H](NC(=O)C3CC3)[C@@H](C)[C@@H]2[C@H]1O (some centres unmarked) [CBK289443] | 103.497 |
| C=C(C)CN1CCN(C(=O)c2c(C)oc3ccc(O)cc23)CC1 [CBK282626] | 109.177 |
| CC(C)NC(=O)c1sc2ccccc2c1C1CN(Cc2cccc3ncccc23)CCO1 (centres unmarked) [CBK285879] | 109.654 |
| CCN(CC)C(=O)C1CCCN(C(=O)NCc2ccc(Cl)c(Cl)c2)C1 (centres unmarked) [CBK156119] | 104.672 |
| N#C/C(=C\c1cn(CCC(N)=O)c2ccccc12)Sc1nc2ccccc2s1 [CBK267897] | 95.3496 |
| CCc1cnc(CN(C)C2CCN(CC(=O)Nc3cccnc3)C2)o1 (centres unmarked) [CBK305358] | 171.319 |
| O=C(NCc1ccccc1)c1ccno1 [CBK200197] | 115.38 |
| Cc1cc(CNC(=O)N2CCCCC2CO)no1 (centres unmarked) [CBK156160] | 112.897 |
| CS(=O)(=O)N1CCCCCC1c1cc(-c2cccs2)on1 (centres unmarked) [CBK284670] | 109.554 |
| CCn1cc(S(=O)(=O)Nc2cccc(CCCC(=O)O)c2)cn1 [CBK304717] | 104.87 |
| COc1ccccc1C(=O)N1CCN(C(=O)CN2CCCC2)CC1 [CBK024836] | 121.866 |
| FC(F)(F)c1ccc(Sc2cccs2)nc1 [CBK115236] | 118.95 |
| CC(=O)NC(Cc1c[nH]c2ccccc12)C(=O)N(C)Cc1cnn(C)c1 (centres unmarked) [CBK305274] | 128.944 |
| CC1CCc2c(sc(NC(=O)c3cnccn3)c2C(N)=O)C1 (centres unmarked) [CBK265466] | 125.019 |
| Fc1ccc(NC(=S)NNC(=S)Nc2cccc3ccccc23)c(F)c1 [CBK266982] | 136.942 |
| O=C(CCS(=O)(=O)c1nc(-c2ccccc2)cc(C(F)(F)F)n1)Nc1ccc(Cl)cc1Cl [CBK268717] | 116.387 |

| Compound | % of control remaining [%] |
| --- | --- |
| CCOc1cccc(-c2cn3ccnc3c(NC3CC3)n2)c1 [CBK066736] | 151.426 |
| O=C(Nc1nc2ccccc2s1)c1cc([N+](=O)[O-])ccc1Cl [CBK072428] | 120.297 |
| Cc1ccc(SCc2ccc(C(=O)Nc3ccccc3C(=O)N3CCCC3)cc2)cc1 [CBK268217] | 89.8746 |
| CC(C)Nc1nccnc1-c1cccnc1 [CBK037054] | 165.204 |
| O=C(c1ccc(F)cc1)N1C[C@H](c2ccsc2)[C@H]2CN(Cc3cccs3)CC[C@H]21 [CBK285636] | 75.9274 |
| Cc1c(C(=O)NC(C)c2cc3ccccc3o2)cnn1C (centres unmarked) [CBK283074] | 173.858 |
| COc1ccccc1C1(NC(=O)CCn2nccc2C)CCCC1 [CBK283628] | 110.976 |
| O=C(CSc1ncnc2c1oc1ccccc12)NC1CCCCC1 [CBK287396] | 160.204 |
| COc1ccc(CNC(=O)c2nc(-c3ccccn3)no2)cc1 [CBK287877] | 118.807 |
| CN(C)C(=O)c1cccc(CNc2ncnc3c2cnn3CCC#N)c1 [CBK305955] | 106.949 |
| CN(C)CC(=O)N1CCN(c2cncc(-c3ccc(O)cc3)n2)CC1 [CBK126921T] | 102.655 |
| CCOC(=O)c1ccc(N/C=C(\C#N)c2nc(-c3cc4ccccc4oc3=O)cs2)cc1 [CBK262356] | 118.066 |
| NC1=NNC2=C(c3cccc(Cl)c3)NNN12 [CBK093661] | 112.615 |
| COc1ccc(C(=O)NC(CC(=O)O)c2ccc(OC)cc2)cc1 (centres unmarked) [CBK266188] | 193.402 |
| CN1CCCC(Cc2cc(-c3ccccc3)no2)(C(=O)N(C)C)C1 (centres unmarked) [CBK281674] | 106.27 |
| O=[N+]([O-])c1ccc(-c2nc(NCc3cccnc3)c3ccccc3n2)cc1 [CBK264788] | 116.309 |
| COc1cc(C(=O)N2CCC3(CC2)CC(=O)c2cc(CN4CCOCC4)ccc2O3)cc(OC)c1C [CBK169182] | 121.752 |
| c1cncc(CCNc2nccnc2-c2cccnc2)c1 [CBK037380] | 99.2629 |
| COc1cc(Nc2cc(-c3ccc4c(c3)OCO4)ncn2)cc(OC)c1OC [CBK090704] | 127.781 |
| Cc1nc(NS(=O)(=O)/C=C/c2ccccc2)sc1C(=O)O [CBK045553] | 97.3873 |
| CCOC(=O)C(NC(=O)c1cc[nH]c(=O)c1)c1cccc(C)c1C (centres unmarked) [CBK304174] | 110.739 |
| CCCN1C(=O)[C@@H]2[C@@H](CCN2C(=O)C(=O)O)N(Cc2cccs2)C1=O [CBK289277] | 134.289 |
| Cn1c(CO)nnc1[C@H]1C[C@@H](NC(=O)CCc2ccc(F)cc2F)C1 [CBK306796] | 122.833 |
| COc1ccc(S(=O)(=O)Nc2cccc(C(=O)Nc3ccc(F)cc3)c2)cc1OC [CBK038982] | 83.624 |
| CN(Cc1ccccc1)CC(O)c1ccc2c(c1)CCCN2C(=O)c1ccccc1F (centres unmarked) [CBK286278] | 122.156 |
| CCOc1ccc2[nH]c(C(=O)N(C)CCN3CCCCC3)c(C)c2c1 [CBK282699] | 141.234 |

Shown with tabs: part of the list above.
Compound	% of control remaining [%]
O=C(CSc1ncnc2c1oc1ccccc12)NC1CCCCC1 [CBK287396]	160.204
NC1=NNC2=C(c3cccc(Cl)c3)NNN12 [CBK093661]	112.615
COc1cc(C(=O)N2CCC3(CC2)CC(=O)c2cc(CN4CCOCC4)ccc2O3)cc(OC)c1C [CBK169182]	121.752

— PMC12040169 (PLOS Biology, 2025)
